# Laboratory results from the supplement of paper PMC3334620.
# Whole data set: some 33,000 sequences, median “E-score (-0.5 to 0.5)” near -0.015, cut for the highest 2% near 0.3. Some of the results follow.
# Molecular target: T1, Abf1 (UniProt P14164)
# T1 sequence: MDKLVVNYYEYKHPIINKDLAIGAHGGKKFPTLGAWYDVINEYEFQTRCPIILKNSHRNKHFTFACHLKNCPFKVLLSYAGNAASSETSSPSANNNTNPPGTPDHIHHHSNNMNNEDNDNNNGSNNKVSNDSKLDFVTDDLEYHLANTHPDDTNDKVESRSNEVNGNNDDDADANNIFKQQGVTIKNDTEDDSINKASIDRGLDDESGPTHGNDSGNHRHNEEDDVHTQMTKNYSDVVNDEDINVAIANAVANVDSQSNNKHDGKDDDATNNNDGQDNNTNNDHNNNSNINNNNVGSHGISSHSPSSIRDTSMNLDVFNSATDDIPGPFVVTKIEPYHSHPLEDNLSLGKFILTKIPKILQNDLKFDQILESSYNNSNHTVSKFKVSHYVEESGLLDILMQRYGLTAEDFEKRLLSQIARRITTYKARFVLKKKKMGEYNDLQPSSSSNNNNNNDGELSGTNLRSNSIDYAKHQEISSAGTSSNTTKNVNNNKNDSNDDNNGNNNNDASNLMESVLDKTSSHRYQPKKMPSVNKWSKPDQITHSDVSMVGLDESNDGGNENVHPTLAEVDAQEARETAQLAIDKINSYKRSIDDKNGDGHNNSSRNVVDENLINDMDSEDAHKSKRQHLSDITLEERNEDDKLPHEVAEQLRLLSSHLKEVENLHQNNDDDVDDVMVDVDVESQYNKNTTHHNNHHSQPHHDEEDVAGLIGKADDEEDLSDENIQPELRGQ
# Assay: PBM E-score (8-mer binding enrichment) (E-score (-0.5 to 0.5)); higher = stronger / more preferred TF binding
# Settings: protein concentration: 200 nM; construct: GST-full length
# Outline: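 For each ungapped eight-base word taken together with its reverse complement, the Universal PBM Analysis Suite assigned an E-score. Binding data came from GST-tagged yeast transcription factors, applied at about 100-200 nM, on universal all-10-mer Agilent arrays made double-stranded by primer extension. Fluorescent anti-GST marked bound protein, and scans were normalised with masliner.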
row,Sequence,PBM E-score
1,AGCACGTG,0.155
2,AGGGAGTG,-0.188
3,TCATCGCA,0.221
4,GCTAGTAC,0.0984
5,CCAGGAAG,-0.105
6,AACTGTAT,-0.0417
7,CCTCATAG,-0.017
8,AACGAAAT,0.285
9,AAGGGACC,0.0128
10,TATCCTCA,0.177
11,AGGCAACT,-0.0398
12,AGAATGGC,-0.0247
13,GCGGGTAC,-0.144
14,ACGGTAAG,-0.00776
15,CAACCGAA,0.0339
16,ACAACACA,0.0492
17,ACAGCCAT,-0.201
18,AAGAAAGC,-0.109
19,AACTCCGT,0.127
20,AATGGGGG,-0.36
21,AGTTCGAT,0.0303
22,AAGAAATC,-0.0576
23,GAGAATAA,0.034
24,CGCAGGTC,-0.116
25,CCCCGTGA,0.121

row,Sequence,PBM E-score
1,GGATAAAC,0.0854
2,AAACTAGC,-0.132
3,GGTTACAA,0.0898
4,AATACATA,0.131
5,AACGGGCG,-0.0384
6,AACCTGCA,-0.0352
7,AAAGCACA,0.0854
8,ATACGCCG,-0.0403
9,ATACCTAA,0.16
10,TATAAATA,0.257
11,GGGTTTAC,-0.14
12,AGTGCCAA,0.0615
13,GGATGGCC,-0.256
14,CTGAGACC,-0.187
15,GATCTCAA,0.201
16,ACTGGCAC,-0.0495
17,AGCGAGTA,0.227
18,AGAGCGAA,-0.0605
19,GCTCATGA,0.122
20,GAGGGGTA,-0.301
21,CATTAGAC,0.0041
22,AAGACCCA,-0.292
23,CCTTCCCA,-0.146
24,AGTGGGAT,-0.0635
25,TAATCTAA,0.0149

row,Sequence,PBM E-score
1,GATACGGC,0.199
2,CCAGAAGC,-0.303
3,AAATAACA,0.0959
4,GCACACGC,-0.209
5,CTAATACA,0.0732
6,CAGATCAA,-0.161
7,CCATCAAA,-0.166
8,ATAGCCCC,-0.202
9,GCCAAGCA,-0.129
10,AAGCCTTC,-0.138
11,CTGGACTC,-0.0544
12,ACGTCAGA,0.025
13,CGGTGAAG,0.00725
14,GTATCATA,0.259
15,AGAAATTG,0.103
16,CCATCTCA,-0.0428
17,CAAGTCGC,-0.00386
18,ACGAGCAC,0.201
19,ACCTTCAA,0.0283
20,ATACGCTC,0.00441
21,AATTTTAG,0.134
22,AGTGCGGC,-0.0349
23,CCATCGCA,-0.0576
24,GGCCTATA,-0.251
25,CTACTCTC,-0.145

# Seven records drawn at random from those above:
row,Sequence,PBM E-score
4,GCACACGC,-0.209
19,ACCTTCAA,0.0283
12,ACGTCAGA,0.025
10,AAGCCTTC,-0.138
21,AATTTTAG,0.134
16,CCATCTCA,-0.0428
9,GCCAAGCA,-0.129

# Later entries

row,Sequence,PBM E-score
1,CCTTTCGC,0.00468
2,CGTTGGTC,-0.154
3,CGCCCGCG,-0.0644
4,CGGGTACA,-0.202
5,ACTCCTAT,0.0863
6,CACCGTAG,0.0588
7,TCCAGCGA,-0.0303
8,AACAACTA,0.0318
9,GCTAGCCA,-0.131
10,CACGACTA,0.156
11,CTCTATGC,-0.194
12,GTTACCGA,0.0226
13,TAGAACAA,-0.0912
14,CACGGGCC,0.0145
15,CGAGGAGC,-0.0167
16,GCAACTAC,-0.0516
17,CACAAACG,0.0262
18,CCGTGGAC,0.0198
19,CGGATTAA,-0.0169
20,CGCGTATA,-0.0856
21,GTCCGAAC,-0.0605
22,AGGGGCAC,-0.299
23,ATCTAGCG,-0.101
24,CCTTTGGC,-0.128
25,CACTAGAA,-0.00226

row,Sequence,PBM E-score
1,CGAATTTC,0.0635
2,CACCTCCG,0.00872
3,CGGGATAA,0.0608
4,AGTTCAGG,-0.0767
5,AGTGGACA,0.0861
6,ATAGCATG,0.0758
7,GGATAAAA,0.158
8,AGACACAC,-0.191
9,CCGGCGGC,-0.194
10,CACGACAC,0.296
11,CCACAAGA,-0.0548
12,AGGTGCGC,-0.0151
13,CGAACCCC,-0.259
14,ATGTTGTC,0.102
15,GAATTCTA,0.162
16,GTACTCCA,0.0416
17,GAAGTTCC,-0.114
18,GCGACAAC,0.191
19,AAGTAACC,-0.0803
20,CTGAACCC,-0.0887
21,CCAACGAA,0.112
22,CTATAAAA,0.106
23,ATCGTATG,0.302
24,GCCTAATA,0.0617
25,ATGCGTCA,0.174

row,Sequence,PBM E-score
1,TAGACCGA,-0.0989
2,CCTCATTC,-0.114
3,AACGTCAT,0.217
4,AGTTAGGC,-0.0539
5,ACGTCCGG,-0.131
6,AGCATCAA,0.00606
7,ACGCTGAA,0.0402
8,GGGCTTTA,-0.313
9,CACTTGTC,0.122
10,AGTCCCGA,-0.196
11,CTCGCTGC,0.0747
12,TAACTCCA,0.0969
13,GCGCCTCC,-0.225
14,CTAGCCGA,-0.209
15,GTCCAACA,0.025
16,CTTATGGC,0.034
17,AAGACCGT,0.0533
18,CTGGCACA,0.00341
19,ATTTTCGC,0.123
20,ACCTAAGG,-0.0147
21,ATGGGATG,-0.152
22,GCCAGGCC,-0.0562
23,AACTCAAC,0.00323
24,GTCATCAA,0.31
25,GCGTAGTA,-0.0958

row,Sequence,PBM E-score
1,AATAGCAC,-0.247
2,CAAATGAC,0.144
3,GACCCGGC,-0.208
4,GCGGCACA,0.112
5,AAGCGAGA,-0.0593
6,ACCTCGGA,0.032
7,TCTACAGA,-0.175
8,AGCAAACG,-0.163
9,ATGAGCGA,0.0981
10,GTTTAGCA,0.0886
11,ATTTAACC,-0.18
12,CACGTTGA,0.14
13,GGTTCGGA,-0.0766
14,CCAAGAGA,-0.0641
15,CTCCGGGA,-0.219
16,AGATGCGA,0.0196
17,CATCTGCG,-0.0622
18,CCCTCTCC,-0.362
19,ATATGTGA,0.0846
20,CCGACAAG,-0.118
21,CCAGTGGA,0.0179
22,CGTTTTGA,0.182

# Quoted from the listing:
# In PBM E-score, ACCTAAGG reads -0.0147
# In PBM E-score, AAACTAGC reads -0.132
# In PBM E-score, CAAATGAC reads 0.144
# In PBM E-score, AGGGAGTG reads -0.188
# In PBM E-score, TCCAGCGA reads -0.0303
# In PBM E-score, AGTGGACA reads 0.0861
# In PBM E-score, CCTCATTC reads -0.114
